Assay [1] concerns the target T1, HA-tagged full-length IKKε (pCAGGS-HA-IKKε) (UniProt Q14164).
T1 sequence: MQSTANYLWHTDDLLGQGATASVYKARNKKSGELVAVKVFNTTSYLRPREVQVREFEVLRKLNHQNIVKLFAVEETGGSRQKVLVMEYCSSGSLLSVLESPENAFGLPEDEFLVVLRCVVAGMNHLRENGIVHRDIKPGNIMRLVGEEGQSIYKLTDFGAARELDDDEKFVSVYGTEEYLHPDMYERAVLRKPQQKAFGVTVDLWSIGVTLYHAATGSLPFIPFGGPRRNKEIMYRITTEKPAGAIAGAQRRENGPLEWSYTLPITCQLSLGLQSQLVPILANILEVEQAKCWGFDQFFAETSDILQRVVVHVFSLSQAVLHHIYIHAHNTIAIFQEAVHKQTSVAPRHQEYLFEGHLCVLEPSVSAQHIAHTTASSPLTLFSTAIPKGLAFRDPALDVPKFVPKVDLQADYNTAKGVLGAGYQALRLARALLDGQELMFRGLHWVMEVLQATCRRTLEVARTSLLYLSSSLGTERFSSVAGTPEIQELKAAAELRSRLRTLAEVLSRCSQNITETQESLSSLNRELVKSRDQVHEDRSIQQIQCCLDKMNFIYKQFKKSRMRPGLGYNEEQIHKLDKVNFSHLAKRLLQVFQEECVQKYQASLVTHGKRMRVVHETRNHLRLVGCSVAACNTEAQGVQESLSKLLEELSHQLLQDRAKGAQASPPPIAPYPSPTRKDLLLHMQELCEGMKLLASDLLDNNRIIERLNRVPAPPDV
In words: co-IP; competitive co-IP: HEK-293T co-transfected with HA-tagged IKKε, SDD or KD and Flag-tagged TRAF3 or IRF3, with pCAGGS-Myc-NS7a or empty vector, 24 h; IP with anti-HA, blot with anti-HA, anti-Flag, anti-Myc (Figures 5A, 5B, 6E, 6F).

The target in assay [2] is T2, HA-tagged kinase domain (KD) of IKKε (pCAGGS-HA-KD) (UniProt Q14164).
T2 sequence: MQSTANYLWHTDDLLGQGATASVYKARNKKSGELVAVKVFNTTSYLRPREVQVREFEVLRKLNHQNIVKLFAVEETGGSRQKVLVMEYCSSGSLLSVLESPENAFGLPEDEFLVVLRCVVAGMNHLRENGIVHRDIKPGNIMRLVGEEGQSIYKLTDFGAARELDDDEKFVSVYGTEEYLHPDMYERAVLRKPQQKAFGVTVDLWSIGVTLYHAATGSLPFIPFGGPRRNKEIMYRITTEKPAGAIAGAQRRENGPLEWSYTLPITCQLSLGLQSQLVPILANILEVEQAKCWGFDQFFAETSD
Described as above.

Assay [3] has as its target T3, HA-tagged scaffold dimerization domain (SDD) of IKKε (pCAGGS-HA-SDD) (UniProt Q14164).
T3 sequence: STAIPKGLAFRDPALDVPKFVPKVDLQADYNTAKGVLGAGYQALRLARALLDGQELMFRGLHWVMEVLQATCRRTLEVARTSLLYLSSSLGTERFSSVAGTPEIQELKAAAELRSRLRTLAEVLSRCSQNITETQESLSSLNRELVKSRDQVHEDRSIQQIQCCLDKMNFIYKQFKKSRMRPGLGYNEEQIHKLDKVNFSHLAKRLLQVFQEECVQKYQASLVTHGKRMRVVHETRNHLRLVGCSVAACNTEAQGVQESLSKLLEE
The description is as above.

Assay [4] addresses T4, Flag-tagged full-length IKKε (UniProt Q14164).
T4 sequence: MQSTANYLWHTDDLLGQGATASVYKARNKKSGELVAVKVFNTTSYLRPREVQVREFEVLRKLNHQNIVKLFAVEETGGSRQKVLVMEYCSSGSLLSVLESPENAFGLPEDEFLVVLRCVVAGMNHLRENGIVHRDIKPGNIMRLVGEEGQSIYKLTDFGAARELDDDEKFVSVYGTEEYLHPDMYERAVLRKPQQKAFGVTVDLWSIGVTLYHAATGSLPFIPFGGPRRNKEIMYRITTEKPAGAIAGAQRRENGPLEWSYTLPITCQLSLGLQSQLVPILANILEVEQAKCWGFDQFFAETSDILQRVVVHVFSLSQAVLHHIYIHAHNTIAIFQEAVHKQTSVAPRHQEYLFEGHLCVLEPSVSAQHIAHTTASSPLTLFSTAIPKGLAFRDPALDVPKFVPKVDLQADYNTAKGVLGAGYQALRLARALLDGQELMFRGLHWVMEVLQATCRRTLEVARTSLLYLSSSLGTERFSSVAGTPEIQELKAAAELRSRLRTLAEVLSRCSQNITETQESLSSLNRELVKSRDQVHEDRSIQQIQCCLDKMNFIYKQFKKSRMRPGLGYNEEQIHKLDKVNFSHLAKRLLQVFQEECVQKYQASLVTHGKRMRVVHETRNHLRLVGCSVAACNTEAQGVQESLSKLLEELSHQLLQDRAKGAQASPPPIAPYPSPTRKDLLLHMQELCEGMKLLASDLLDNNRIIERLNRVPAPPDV
In words: co-IP; reverse co-IP: HEK-293T co-transfected with pCAGGS-HA-NS7a and Flag-tagged IKKε, SDD or KD for 24 h; IP with anti-Flag, blot with anti-HA (Figures 4B, 6C, 6D).

Assay [5] has as its target T5, Flag-tagged scaffold dimerization domain (SDD) of IKKε (pCAGGS-Flag-SDD) (UniProt Q14164).
T5 sequence: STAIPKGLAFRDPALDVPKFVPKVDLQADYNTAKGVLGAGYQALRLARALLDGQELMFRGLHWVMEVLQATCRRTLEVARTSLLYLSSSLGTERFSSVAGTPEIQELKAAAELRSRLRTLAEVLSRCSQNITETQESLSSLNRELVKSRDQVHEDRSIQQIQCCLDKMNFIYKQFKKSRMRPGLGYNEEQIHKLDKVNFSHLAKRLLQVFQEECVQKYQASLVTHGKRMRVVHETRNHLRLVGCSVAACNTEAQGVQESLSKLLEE
Described as above.

In assay [6] the target is T6, Flag-tagged kinase domain (KD) of IKKε (pCAGGS-Flag-KD) (UniProt Q14164).
T6 sequence: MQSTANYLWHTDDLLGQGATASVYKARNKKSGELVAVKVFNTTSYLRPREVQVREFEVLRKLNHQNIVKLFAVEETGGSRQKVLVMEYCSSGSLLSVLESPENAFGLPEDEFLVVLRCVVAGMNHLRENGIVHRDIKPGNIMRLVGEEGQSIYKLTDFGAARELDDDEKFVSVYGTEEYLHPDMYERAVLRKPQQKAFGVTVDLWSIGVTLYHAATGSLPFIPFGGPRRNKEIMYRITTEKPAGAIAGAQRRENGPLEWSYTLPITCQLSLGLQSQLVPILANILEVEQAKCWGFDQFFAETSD
Described as above.

The target in assay [7] is PDCoV NS7a, HA-tagged (pCAGGS-HA-NS7a) (porcine deltacoronavirus (PDCoV) strain CHN-HN-2014). The experiment in a line: co-IP; HEK-293T co-transfected with pCAGGS-HA-NS7a and Flag-tagged constructs for 24 h; lysis buffer 50 mM Tris-HCl, 150 mM NaCl, 1% NP-40, 10% glycerin, 0.1% SDS, 2 mM Na2EDTA, pH 7.4; IP with anti-HA, blot with anti-Flag (Figures 4A, 6B).

Results are given in words; binding and its absence hold for the method and conditions named. In cells and extracts the contact can be indirect. A result given as binding can be weak or reduced; the word gives no strength. Where a sequence is shown, tags or fusion partners need not be part of it.

As for “PDCoV NS7a, Myc-tagged (pCAGGS-Myc-NS7a)”, the binding entry in assay [1], in assay [2] and in assay [3] was “binds” each time.

As to PDCoV NS7a, HA-tagged (pCAGGS-HA-NS7a), the binding entry in assay [4], in assay [5] and in assay [6] was “binds” each time.

B1: Flag-tagged scaffold dimerization domain (SDD) of IKKε (pCAGGS-Flag-SDD) (domain or fragment, UniProt Q14164 383-648)
chain: STAIPKGLAFRDPALDVPKFVPKVDLQADYNTAKGVLGAGYQALRLARALLDGQELMFRGLHWVMEVLQATCRRTLEVARTSLLYLSSSLGTERFSSVAGTPEIQELKAAAELRSRLRTLAEVLSRCSQNITETQESLSSLNRELVKSRDQVHEDRSIQQIQCCLDKMNFIYKQFKKSRMRPGLGYNEEQIHKLDKVNFSHLAKRLLQVFQEECVQKYQASLVTHGKRMRVVHETRNHLRLVGCSVAACNTEAQGVQESLSKLLEE
For the molecule B1, in assay [7], the binding result was “binds”.

B2: Flag-tagged kinase domain (KD) of IKKε (pCAGGS-Flag-KD) (domain or fragment, UniProt Q14164 1-304)
chain: MQSTANYLWHTDDLLGQGATASVYKARNKKSGELVAVKVFNTTSYLRPREVQVREFEVLRKLNHQNIVKLFAVEETGGSRQKVLVMEYCSSGSLLSVLESPENAFGLPEDEFLVVLRCVVAGMNHLRENGIVHRDIKPGNIMRLVGEEGQSIYKLTDFGAARELDDDEKFVSVYGTEEYLHPDMYERAVLRKPQQKAFGVTVDLWSIGVTLYHAATGSLPFIPFGGPRRNKEIMYRITTEKPAGAIAGAQRRENGPLEWSYTLPITCQLSLGLQSQLVPILANILEVEQAKCWGFDQFFAETSD
B2: the binding entry in assay [7] is on record as “binds”.

B3: Flag-tagged full-length IKKε (protein, UniProt Q14164 1-716)
chain: MQSTANYLWHTDDLLGQGATASVYKARNKKSGELVAVKVFNTTSYLRPREVQVREFEVLRKLNHQNIVKLFAVEETGGSRQKVLVMEYCSSGSLLSVLESPENAFGLPEDEFLVVLRCVVAGMNHLRENGIVHRDIKPGNIMRLVGEEGQSIYKLTDFGAARELDDDEKFVSVYGTEEYLHPDMYERAVLRKPQQKAFGVTVDLWSIGVTLYHAATGSLPFIPFGGPRRNKEIMYRITTEKPAGAIAGAQRRENGPLEWSYTLPITCQLSLGLQSQLVPILANILEVEQAKCWGFDQFFAETSDILQRVVVHVFSLSQAVLHHIYIHAHNTIAIFQEAVHKQTSVAPRHQEYLFEGHLCVLEPSVSAQHIAHTTASSPLTLFSTAIPKGLAFRDPALDVPKFVPKVDLQADYNTAKGVLGAGYQALRLARALLDGQELMFRGLHWVMEVLQATCRRTLEVARTSLLYLSSSLGTERFSSVAGTPEIQELKAAAELRSRLRTLAEVLSRCSQNITETQESLSSLNRELVKSRDQVHEDRSIQQIQCCLDKMNFIYKQFKKSRMRPGLGYNEEQIHKLDKVNFSHLAKRLLQVFQEECVQKYQASLVTHGKRMRVVHETRNHLRLVGCSVAACNTEAQGVQESLSKLLEELSHQLLQDRAKGAQASPPPIAPYPSPTRKDLLLHMQELCEGMKLLASDLLDNNRIIERLNRVPAPPDV
On to B3, for which the binding result in assay [7] is on record as “binds”.

These data come from PMC7326017.
